According to article PMC7803728:
No constants are given. Whether binding was seen depends on the method and setting. In cells and extracts the contact can be indirect. Some results given as binding are weak or reduced against the parent protein; the word gives no strength.

By UniProt entry, the sequences of proteins in these tests, tags left out.
UniProt P56517: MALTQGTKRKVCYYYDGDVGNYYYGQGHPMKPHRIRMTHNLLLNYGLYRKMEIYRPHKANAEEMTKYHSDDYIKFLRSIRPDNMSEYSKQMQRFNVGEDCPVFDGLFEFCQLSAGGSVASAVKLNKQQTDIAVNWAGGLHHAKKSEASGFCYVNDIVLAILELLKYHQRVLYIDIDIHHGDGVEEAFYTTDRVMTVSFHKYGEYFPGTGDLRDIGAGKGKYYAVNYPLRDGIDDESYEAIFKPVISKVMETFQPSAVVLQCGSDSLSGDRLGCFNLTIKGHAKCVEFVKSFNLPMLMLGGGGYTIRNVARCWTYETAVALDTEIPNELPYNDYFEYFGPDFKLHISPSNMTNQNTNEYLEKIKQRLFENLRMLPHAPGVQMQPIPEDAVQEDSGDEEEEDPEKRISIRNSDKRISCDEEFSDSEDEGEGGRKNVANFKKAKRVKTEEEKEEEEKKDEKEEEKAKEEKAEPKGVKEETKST
UniProt P56519: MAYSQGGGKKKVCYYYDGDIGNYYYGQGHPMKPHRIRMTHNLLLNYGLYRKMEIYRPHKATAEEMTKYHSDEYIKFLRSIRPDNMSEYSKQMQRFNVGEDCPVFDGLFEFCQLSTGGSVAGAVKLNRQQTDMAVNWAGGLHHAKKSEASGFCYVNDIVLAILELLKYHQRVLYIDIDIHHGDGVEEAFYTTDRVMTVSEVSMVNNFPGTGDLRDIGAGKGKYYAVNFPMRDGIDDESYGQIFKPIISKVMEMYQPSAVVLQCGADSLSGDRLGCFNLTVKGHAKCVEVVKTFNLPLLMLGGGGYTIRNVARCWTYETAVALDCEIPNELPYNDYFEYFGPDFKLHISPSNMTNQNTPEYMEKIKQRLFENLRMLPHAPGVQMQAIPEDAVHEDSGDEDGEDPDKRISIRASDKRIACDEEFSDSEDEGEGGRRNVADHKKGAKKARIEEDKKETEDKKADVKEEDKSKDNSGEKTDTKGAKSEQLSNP

What was measured:
[1] = molecular target: FLAG tagged full length chHDAC1 (pcDNA-FLAG-chHDAC1) (chicken) (UniProt P56517); assay: co-IP; 293T cells co-transfected with FLAG- and HA-tagged chHDAC1 (or chHDAC2) with pcDNA-T7-Meq or empty vector, 48 h; precipitated with FLAG antibody or normal mouse IgG; Western blot with T7, HA and FLAG antibodies
[2] = molecular target: FLAG tagged full length chHDAC2 (pcDNA-FLAG-chHDAC2) (chicken) (UniProt P56519); assay: as above

## HA tagged full length chHDAC1 (pcDNA-HA-chHDAC1) (from UniProt P56517 1-480) (enzyme)
[1]
  binding: binds

## HA tagged full length chHDAC2 (pcDNA-HA-chHDAC2) (from UniProt P56519 1-488) (enzyme)
[2]
  binding: binds
